The supplement of paper PMC12823440, “Inhibitors supercharge kinase turnover through native proteolytic circuits” (Nature, 2025)
Some of the results follow. The calls rarely recur for the same compound in another form.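 In K562 cells expressing nanoluciferase-fused kinases, luminescence was recorded at 4 h intervals between 2 and 18 h, normalized as percent of control with DMSO at 100% and a positive control at 0%. A significant (2 sigma) signal drop marks a time point as decreased. The authors' rule for a hit is not shown and takes in more than the number of time points.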

Chains of the proteins cited; added tags and fusions are not shown. Lines headed by an entry give the natural chain unless they say otherwise; changes in a name come on top.
UniProt O75460: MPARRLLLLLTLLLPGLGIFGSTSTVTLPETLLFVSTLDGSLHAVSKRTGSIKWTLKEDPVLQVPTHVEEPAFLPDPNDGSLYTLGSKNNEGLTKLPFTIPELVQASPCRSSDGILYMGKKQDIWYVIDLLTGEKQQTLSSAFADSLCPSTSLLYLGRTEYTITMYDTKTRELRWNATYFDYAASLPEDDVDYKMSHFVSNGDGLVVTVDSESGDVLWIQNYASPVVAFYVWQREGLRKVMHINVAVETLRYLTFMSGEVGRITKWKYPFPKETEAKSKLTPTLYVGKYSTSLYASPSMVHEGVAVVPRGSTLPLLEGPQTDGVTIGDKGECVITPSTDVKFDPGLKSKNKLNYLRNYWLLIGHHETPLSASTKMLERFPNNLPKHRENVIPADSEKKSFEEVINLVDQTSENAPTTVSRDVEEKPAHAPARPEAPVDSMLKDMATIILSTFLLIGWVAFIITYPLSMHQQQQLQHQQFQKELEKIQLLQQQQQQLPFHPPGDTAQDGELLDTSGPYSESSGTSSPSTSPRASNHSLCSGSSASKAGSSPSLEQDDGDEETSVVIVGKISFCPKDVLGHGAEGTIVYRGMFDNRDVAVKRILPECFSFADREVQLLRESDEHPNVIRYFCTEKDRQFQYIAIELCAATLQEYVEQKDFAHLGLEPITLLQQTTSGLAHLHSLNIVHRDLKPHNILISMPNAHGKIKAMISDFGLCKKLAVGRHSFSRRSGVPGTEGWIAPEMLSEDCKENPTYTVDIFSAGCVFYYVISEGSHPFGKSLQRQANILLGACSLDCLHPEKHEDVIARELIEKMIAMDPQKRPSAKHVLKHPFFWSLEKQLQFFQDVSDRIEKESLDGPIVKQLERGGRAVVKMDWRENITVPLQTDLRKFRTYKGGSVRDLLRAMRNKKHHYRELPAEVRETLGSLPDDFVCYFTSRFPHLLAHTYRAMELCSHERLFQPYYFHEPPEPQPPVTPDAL
UniProt P11362, whole entry, looked up: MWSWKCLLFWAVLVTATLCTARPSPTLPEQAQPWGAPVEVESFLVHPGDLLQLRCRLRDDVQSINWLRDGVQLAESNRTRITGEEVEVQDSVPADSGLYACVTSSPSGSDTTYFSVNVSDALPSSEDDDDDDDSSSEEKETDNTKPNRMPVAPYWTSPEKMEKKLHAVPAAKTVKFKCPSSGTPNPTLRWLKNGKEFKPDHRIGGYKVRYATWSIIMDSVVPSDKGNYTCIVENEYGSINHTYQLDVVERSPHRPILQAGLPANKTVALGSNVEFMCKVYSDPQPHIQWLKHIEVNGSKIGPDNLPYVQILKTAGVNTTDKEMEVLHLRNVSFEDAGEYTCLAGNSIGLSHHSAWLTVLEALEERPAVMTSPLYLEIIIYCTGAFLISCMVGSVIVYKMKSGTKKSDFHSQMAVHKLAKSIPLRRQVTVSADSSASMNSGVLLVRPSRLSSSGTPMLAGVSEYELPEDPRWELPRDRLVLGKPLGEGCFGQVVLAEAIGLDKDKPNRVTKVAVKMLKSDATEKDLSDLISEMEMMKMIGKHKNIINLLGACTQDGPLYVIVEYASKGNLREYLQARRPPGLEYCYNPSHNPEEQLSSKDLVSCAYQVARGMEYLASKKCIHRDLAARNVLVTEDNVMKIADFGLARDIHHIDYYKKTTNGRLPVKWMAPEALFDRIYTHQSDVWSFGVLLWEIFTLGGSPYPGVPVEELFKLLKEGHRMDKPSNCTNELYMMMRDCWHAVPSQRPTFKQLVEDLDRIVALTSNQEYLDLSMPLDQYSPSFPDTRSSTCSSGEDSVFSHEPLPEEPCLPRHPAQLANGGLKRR
UniProt P21802, whole entry, looked up: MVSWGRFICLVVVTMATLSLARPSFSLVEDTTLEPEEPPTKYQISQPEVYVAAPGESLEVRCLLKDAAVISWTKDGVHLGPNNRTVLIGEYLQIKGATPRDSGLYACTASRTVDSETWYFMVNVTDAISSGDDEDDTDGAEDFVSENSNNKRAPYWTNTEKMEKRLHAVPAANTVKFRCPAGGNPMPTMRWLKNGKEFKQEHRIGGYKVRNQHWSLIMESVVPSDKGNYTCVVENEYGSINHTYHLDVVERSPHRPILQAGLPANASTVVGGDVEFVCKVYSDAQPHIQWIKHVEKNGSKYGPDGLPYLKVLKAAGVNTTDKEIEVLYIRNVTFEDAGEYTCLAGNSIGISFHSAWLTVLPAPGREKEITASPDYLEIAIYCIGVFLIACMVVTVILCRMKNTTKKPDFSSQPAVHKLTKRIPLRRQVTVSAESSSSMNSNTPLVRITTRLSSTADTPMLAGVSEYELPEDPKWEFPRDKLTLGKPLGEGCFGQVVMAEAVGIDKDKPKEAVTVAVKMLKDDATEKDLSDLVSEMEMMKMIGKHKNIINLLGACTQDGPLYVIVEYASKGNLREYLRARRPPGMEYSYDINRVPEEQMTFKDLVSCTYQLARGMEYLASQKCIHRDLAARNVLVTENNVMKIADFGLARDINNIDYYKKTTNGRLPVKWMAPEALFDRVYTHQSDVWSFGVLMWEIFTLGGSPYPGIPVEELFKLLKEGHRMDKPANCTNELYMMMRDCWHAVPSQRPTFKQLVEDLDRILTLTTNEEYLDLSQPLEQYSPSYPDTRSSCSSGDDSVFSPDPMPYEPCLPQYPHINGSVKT
UniProt P36888, whole entry: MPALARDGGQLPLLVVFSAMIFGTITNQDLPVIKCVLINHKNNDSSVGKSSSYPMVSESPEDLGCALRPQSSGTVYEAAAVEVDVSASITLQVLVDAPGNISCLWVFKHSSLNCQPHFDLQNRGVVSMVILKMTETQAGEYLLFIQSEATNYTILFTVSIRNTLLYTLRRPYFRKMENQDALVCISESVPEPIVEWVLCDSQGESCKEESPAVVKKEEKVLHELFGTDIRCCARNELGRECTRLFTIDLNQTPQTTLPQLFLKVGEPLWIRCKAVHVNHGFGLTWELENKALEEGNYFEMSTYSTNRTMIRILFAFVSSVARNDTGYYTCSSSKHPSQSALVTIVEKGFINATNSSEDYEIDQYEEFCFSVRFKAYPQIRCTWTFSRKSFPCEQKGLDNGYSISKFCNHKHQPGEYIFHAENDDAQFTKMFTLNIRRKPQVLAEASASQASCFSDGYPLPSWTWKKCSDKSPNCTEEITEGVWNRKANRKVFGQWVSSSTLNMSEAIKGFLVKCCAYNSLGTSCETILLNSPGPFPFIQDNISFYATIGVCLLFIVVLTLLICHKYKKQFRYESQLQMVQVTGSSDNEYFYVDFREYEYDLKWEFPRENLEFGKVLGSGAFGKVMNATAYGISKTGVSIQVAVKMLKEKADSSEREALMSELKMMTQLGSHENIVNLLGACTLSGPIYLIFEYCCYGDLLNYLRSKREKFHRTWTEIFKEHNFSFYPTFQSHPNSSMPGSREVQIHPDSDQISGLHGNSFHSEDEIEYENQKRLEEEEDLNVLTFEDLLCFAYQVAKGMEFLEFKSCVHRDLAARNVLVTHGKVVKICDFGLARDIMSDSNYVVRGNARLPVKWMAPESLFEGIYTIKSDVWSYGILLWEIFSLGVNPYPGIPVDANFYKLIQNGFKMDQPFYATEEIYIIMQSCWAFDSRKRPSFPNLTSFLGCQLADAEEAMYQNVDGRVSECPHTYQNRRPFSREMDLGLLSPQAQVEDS
UniProt P06241, whole entry, looked up: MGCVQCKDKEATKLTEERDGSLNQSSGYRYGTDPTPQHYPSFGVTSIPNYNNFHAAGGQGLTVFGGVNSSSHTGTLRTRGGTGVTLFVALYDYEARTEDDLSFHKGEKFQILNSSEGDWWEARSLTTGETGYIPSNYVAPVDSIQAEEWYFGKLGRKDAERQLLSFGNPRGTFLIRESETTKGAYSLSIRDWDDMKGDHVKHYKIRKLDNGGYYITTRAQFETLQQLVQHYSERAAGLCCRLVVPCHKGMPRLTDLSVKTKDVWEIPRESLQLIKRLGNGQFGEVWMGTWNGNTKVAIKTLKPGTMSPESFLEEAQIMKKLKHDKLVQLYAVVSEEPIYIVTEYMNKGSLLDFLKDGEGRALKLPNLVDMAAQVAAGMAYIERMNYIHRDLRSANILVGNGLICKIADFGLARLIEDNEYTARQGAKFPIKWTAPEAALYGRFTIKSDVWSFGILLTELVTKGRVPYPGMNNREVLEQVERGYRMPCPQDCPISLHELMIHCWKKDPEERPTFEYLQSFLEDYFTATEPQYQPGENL
UniProt P49840: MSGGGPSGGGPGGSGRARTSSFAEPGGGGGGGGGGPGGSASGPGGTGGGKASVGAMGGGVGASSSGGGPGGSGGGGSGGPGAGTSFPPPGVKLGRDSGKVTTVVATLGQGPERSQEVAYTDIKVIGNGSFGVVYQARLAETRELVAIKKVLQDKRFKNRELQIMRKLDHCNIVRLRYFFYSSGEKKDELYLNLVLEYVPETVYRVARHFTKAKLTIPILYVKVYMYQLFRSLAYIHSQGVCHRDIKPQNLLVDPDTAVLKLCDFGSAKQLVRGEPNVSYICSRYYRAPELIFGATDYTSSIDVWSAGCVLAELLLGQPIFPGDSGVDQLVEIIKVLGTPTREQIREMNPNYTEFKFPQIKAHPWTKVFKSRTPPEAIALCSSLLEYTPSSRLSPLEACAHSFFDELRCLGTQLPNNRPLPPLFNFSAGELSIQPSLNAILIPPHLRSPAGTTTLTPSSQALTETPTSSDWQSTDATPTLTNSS
UniProt P14616: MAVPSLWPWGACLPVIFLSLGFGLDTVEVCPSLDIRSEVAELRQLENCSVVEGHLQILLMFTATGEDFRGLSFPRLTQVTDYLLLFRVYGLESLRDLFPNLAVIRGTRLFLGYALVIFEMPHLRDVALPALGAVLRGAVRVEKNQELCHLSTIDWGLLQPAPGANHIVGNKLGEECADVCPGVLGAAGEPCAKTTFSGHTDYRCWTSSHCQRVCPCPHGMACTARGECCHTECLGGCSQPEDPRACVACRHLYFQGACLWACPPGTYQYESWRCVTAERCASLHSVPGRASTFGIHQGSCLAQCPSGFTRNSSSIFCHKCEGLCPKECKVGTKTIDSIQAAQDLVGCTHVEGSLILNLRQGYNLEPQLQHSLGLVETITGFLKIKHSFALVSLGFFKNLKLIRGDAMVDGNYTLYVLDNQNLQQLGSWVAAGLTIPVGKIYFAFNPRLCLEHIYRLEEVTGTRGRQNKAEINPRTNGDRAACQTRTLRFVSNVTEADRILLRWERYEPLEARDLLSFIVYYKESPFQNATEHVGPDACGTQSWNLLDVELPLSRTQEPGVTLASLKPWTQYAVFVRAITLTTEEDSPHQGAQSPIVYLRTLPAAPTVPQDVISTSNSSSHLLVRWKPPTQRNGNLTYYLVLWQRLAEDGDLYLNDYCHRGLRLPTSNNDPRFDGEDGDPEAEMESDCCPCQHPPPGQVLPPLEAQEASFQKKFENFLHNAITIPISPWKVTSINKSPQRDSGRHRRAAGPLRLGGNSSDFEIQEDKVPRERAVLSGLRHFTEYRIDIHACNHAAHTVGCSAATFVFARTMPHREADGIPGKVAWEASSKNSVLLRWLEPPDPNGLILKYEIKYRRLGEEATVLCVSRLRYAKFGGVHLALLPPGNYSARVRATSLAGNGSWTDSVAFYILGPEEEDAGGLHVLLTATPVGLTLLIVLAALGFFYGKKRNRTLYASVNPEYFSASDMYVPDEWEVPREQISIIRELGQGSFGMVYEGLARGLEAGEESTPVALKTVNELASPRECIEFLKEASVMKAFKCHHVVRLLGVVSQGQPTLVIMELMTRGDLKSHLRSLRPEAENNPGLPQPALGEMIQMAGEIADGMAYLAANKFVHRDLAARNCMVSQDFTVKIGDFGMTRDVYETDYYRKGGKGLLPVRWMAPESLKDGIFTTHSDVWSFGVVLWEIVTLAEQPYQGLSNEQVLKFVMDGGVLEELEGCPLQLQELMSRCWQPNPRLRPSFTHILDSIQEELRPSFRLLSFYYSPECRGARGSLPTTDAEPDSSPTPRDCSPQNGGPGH

Experiments:
Test in all cases: kinase-Nluc reporter destabilization hit call (1 = scored as downregulated) (binary); higher = compound decreases kinase abundance
Settings in all cases: K562; 2-18 h
ERN1 = ERN1 (UniProt O75460)
FGFR1 = FGFR1 (UniProt P11362)
FGFR2 = FGFR2 (UniProt P21802)
FGFR3 = FGFR3 (UniProt P22607)
FGR = FGR (UniProt P09769)
FLT3 = FLT3 (UniProt P36888)
FYN = FYN (UniProt P06241)
GSK3A = GSK3A (UniProt P49840)
HER2 = HER2 (UniProt P04626)
INSRR = INSRR (UniProt P14616)

Row | SMILES | kinase-Nluc reporter destabilization hit call (ERN1) | kinase-Nluc reporter destabilization hit call (FGFR1) | kinase-Nluc reporter destabilization hit call (FGFR2) | kinase-Nluc reporter destabilization hit call (FGFR3) | kinase-Nluc reporter destabilization hit call (FGR) | kinase-Nluc reporter destabilization hit call (FLT3) | kinase-Nluc reporter destabilization hit call (FYN) | kinase-Nluc reporter destabilization hit call (GSK3A) | kinase-Nluc reporter destabilization hit call (HER2) | kinase-Nluc reporter destabilization hit call (INSRR)
1 | N#Cc1cc(N2CCC(C(=O)N3N=CC[C@H]3c3cc(F)cc(F)c3)CC2)ncn1 (10 µM) | inactive: 0 | inactive: 0 | inactive: 0 | inactive: 0 | inactive: 0 | inactive: 0 | inactive: 0 | inactive: 0 | inactive: 0 | inactive: 0
2 | CN(C[C@@H]1COCCO1)S(=O)(=O)Nc1ccc2ccc3ncc(-c4cnn(C)c4)cc3c(=O)c2c1 (2.5 µM) | inactive: 0 | inactive: 0 | inactive: 0 | inactive: 0 | inactive: 0 | inactive: 0 | inactive: 0 | inactive: 0 | inactive: 0 | inactive: 0
3 | COc1ccc2nc3ccc(OC)cc3c(SCCCN)c2c1 (10 µM) | inactive: 0 | inactive: 0 | inactive: 0 | inactive: 0 | inactive: 0 | inactive: 0 | inactive: 0 | inactive: 0 | inactive: 0 | inactive: 0
4 | O=c1c(O)c(-c2ccc(O)c(O)c2)oc2cc(O)c(O)c(O)c12 [Quercetagetin] (10 µM) | inactive: 0 | inactive: 0 | inactive: 0 | inactive: 0 | inactive: 0 | inactive: 0 | inactive: 0 | inactive: 0 | inactive: 0 | inactive: 0
5 | O=C(CCl)c1c[nH]c2ccccc12 (2.5 µM) | inactive: 0 | inactive: 0 | inactive: 0 | inactive: 0 | inactive: 0 | inactive: 0 | inactive: 0 | inactive: 0 | inactive: 0 | inactive: 0
6 | O=C1NC(=O)C(Cc2c[nH]c3c(Cl)cccc23)N1 (stereo not given) [Necroptosis-IN-1] (10 µM) | inactive: 0 | inactive: 0 | inactive: 0 | inactive: 0 | inactive: 0 | inactive: 0 | inactive: 0 | inactive: 0 | inactive: 0 | inactive: 0
7 | C[C@H](Nc1cc2c(-c3ccc4c(c3)OCO4)noc2cn1)c1ccccc1 (10 µM) | inactive: 0 | inactive: 0 | inactive: 0 | inactive: 0 | inactive: 0 | inactive: 0 | inactive: 0 | inactive: 0 | inactive: 0 | inactive: 0
8 | N#Cc1cc(-c2ccnc(Nc3ccc(N4CCOCC4)cc3)n2)ccc1OC1CCOCC1 (10 µM) | inactive: 0 | inactive: 0 | inactive: 0 | inactive: 0 | inactive: 0 | inactive: 0 | inactive: 0 | inactive: 0 | active: 1 | inactive: 0
9 | COc1cc2nccc(Nc3cccc(Oc4ccccc4)c3)c2cc1OC (2.5 µM) | inactive: 0 | inactive: 0 | inactive: 0 | inactive: 0 | inactive: 0 | inactive: 0 | inactive: 0 | inactive: 0 | inactive: 0 | inactive: 0
10 | O=[N+]([O-])c1ccc(-c2nc(-c3ccc(F)cc3)c(-c3ccncc3)[nH]2)cc1 (10 µM) | inactive: 0 | inactive: 0 | inactive: 0 | inactive: 0 | inactive: 0 | inactive: 0 | inactive: 0 | inactive: 0 | inactive: 0 | inactive: 0
11 | CN1C(=O)N[C@@H](Cc2c[nH]c3c(Cl)cccc23)C1=O [Necrostatin 2 (S enantiomer)] (10 µM) | inactive: 0 | inactive: 0 | inactive: 0 | inactive: 0 | inactive: 0 | inactive: 0 | inactive: 0 | inactive: 0 | inactive: 0 | inactive: 0
12 | Cc1cccc(CC(=O)N2CCc3c2ccc(-c2cn(C)c4ncnc(N)c24)c3F)n1 (10 µM) | inactive: 0 | inactive: 0 | inactive: 0 | inactive: 0 | inactive: 0 | inactive: 0 | inactive: 0 | inactive: 0 | inactive: 0 | inactive: 0
13 | COc1cc(Nc2ccnc3ccc(Br)cc23)cc(OC)c1OC (2.5 µM) | inactive: 0 | inactive: 0 | inactive: 0 | inactive: 0 | inactive: 0 | inactive: 0 | inactive: 0 | inactive: 0 | inactive: 0 | inactive: 0
14 | Fc1ccc(-c2nc3n(c2-c2ccncc2)CCS3)cc1 (10 µM) | inactive: 0 | inactive: 0 | inactive: 0 | inactive: 0 | inactive: 0 | inactive: 0 | inactive: 0 | inactive: 0 | inactive: 0 | inactive: 0
15 | CC(=O)Nc1nc(C)c(-c2cc(C)c3c(c2)CN([C@@H](C)C2CC2)C3=O)s1 (10 µM) | inactive: 0 | inactive: 0 | inactive: 0 | inactive: 0 | inactive: 0 | inactive: 0 | inactive: 0 | inactive: 0 | inactive: 0 | inactive: 0
16 | CC(C)(CCCCCC(O)CCCCCC(C)(C)C(=O)O)C(=O)O [Bempedoic acid] (10 µM) | inactive: 0 | inactive: 0 | inactive: 0 | inactive: 0 | inactive: 0 | inactive: 0 | inactive: 0 | inactive: 0 | inactive: 0 | inactive: 0
17 | CCc1c(C(=O)NNC(=O)[C@H](O)c2cc(F)cc(F)c2)ccc(O)c1C (10 µM) | inactive: 0 | inactive: 0 | inactive: 0 | inactive: 0 | inactive: 0 | inactive: 0 | inactive: 0 | inactive: 0 | inactive: 0 | inactive: 0
18 | CN1CCN(c2ccc(-c3ccncc3-c3cc(F)c(O)c(F)c3)cc2)CC1 (10 µM) | inactive: 0 | inactive: 0 | inactive: 0 | inactive: 0 | inactive: 0 | inactive: 0 | inactive: 0 | inactive: 0 | inactive: 0 | inactive: 0
19 | Cc1cc2c(F)c(Oc3ncnn4cc(OC[C@@H](C)OC(=O)[C@H](C)N)c(C)c34)ccc2[nH]1 [Brivanib (alaninate)] (10 µM) | inactive: 0 | inactive: 0 | inactive: 0 | inactive: 0 | inactive: 0 | inactive: 0 | inactive: 0 | inactive: 0 | inactive: 0 | inactive: 0
20 | CN1CCN(Cc2ccc(-c3cnc4[nH]cc(-c5ccc6[nH]ccc6c5)c4c3)cc2)CC1 (2.5 µM) | inactive: 0 | inactive: 0 | inactive: 0 | inactive: 0 | inactive: 0 | inactive: 0 | inactive: 0 | inactive: 0 | inactive: 0 | inactive: 0
21 | O=C1Cc2ccccc2N1 [Oxindole] (10 µM) | inactive: 0 | inactive: 0 | inactive: 0 | inactive: 0 | inactive: 0 | inactive: 0 | inactive: 0 | inactive: 0 | inactive: 0 | inactive: 0
22 | O=S(=O)(c1ccc(O)cc1O)N1Cc2cc(O)cc(O)c2C1 (10 µM) | inactive: 0 | inactive: 0 | inactive: 0 | inactive: 0 | inactive: 0 | inactive: 0 | inactive: 0 | inactive: 0 | inactive: 0 | inactive: 0
23 | O=C1CCC(N2C(=O)c3cccc(OCCCCCOc4ccc(CC(=O)Nc5cc(C6CCC6)[nH]n5)cc4)c3C2=O)C(=O)N1 (stereo not given) [PROTAC CDK9 Degrader-1] (10 µM) | inactive: 0 | inactive: 0 | inactive: 0 | inactive: 0 | inactive: 0 | inactive: 0 | inactive: 0 | inactive: 0 | inactive: 0 | inactive: 0
24 | CS(=O)(=O)c1ccc([C@@H](CC2CCCC2)C(=O)Nc2nccs2)cc1 (10 µM) | inactive: 0 | inactive: 0 | inactive: 0 | inactive: 0 | inactive: 0 | inactive: 0 | inactive: 0 | inactive: 0 | inactive: 0 | inactive: 0
25 | Cn1c(N2CCO[C@@H](c3ccc(F)cc3)C2)nc(-c2ccncn2)cc1=O (10 µM) | inactive: 0 | inactive: 0 | inactive: 0 | inactive: 0 | inactive: 0 | inactive: 0 | inactive: 0 | inactive: 0 | inactive: 0 | inactive: 0
26 | CCC[C@H](C)Oc1nc(N)c2[nH]c(=O)n(CCCCCN3CCCCC3)c2n1 (10 µM) | inactive: 0 | inactive: 0 | inactive: 0 | inactive: 0 | inactive: 0 | inactive: 0 | inactive: 0 | inactive: 0 | inactive: 0 | inactive: 0
27 | CCOc1cc(N2CCC(O)CC2)ccc1Nc1ncc2c(n1)N(C1CCCC1)CCC(=O)N2C (2.5 µM) | inactive: 0 | inactive: 0 | inactive: 0 | inactive: 0 | inactive: 0 | inactive: 0 | inactive: 0 | inactive: 0 | inactive: 0 | inactive: 0
28 | Cc1cnc(Nc2ccc(F)cc2Cl)nc1-c1c[nH]c(C(=O)N[C@H](CO)c2cccc(Cl)c2)c1 (10 µM) | inactive: 0 | inactive: 0 | inactive: 0 | inactive: 0 | inactive: 0 | inactive: 0 | inactive: 0 | inactive: 0 | inactive: 0 | inactive: 0
29 | O=C(Nc1ccc(F)cc1F)C(NC(=S)Nc1cc(C(F)(F)F)cc(C(F)(F)F)c1)c1ccccc1 (racemic) (2.5 µM) | inactive: 0 | inactive: 0 | inactive: 0 | inactive: 0 | inactive: 0 | inactive: 0 | inactive: 0 | inactive: 0 | inactive: 0 | inactive: 0
30 | C=CC(=O)Nc1cccc(Oc2nc(Nc3ccc(N4CCN(C)CC4)cc3OC)ncc2Cl)c1 (10 µM) | inactive: 0 | inactive: 0 | inactive: 0 | inactive: 0 | inactive: 0 | inactive: 0 | inactive: 0 | inactive: 0 | active: 1 | inactive: 0

As entered above.
In kinase-Nluc reporter destabilization hit call (FGFR2), `N#Cc1cc(-c2ccnc(Nc3ccc(N4CCOCC4)cc3)n2)ccc1OC1CCOCC1` (10 µM) has the entry inactive: 0
In kinase-Nluc reporter destabilization hit call (FGFR2), `COc1cc2nccc(Nc3cccc(Oc4ccccc4)c3)c2cc1OC` (2.5 µM) has the entry inactive: 0
